PubChem BioAssay AID504786 | Drosophila RNAi Screening Center, 2011
The screen tested about 21,000 reagents; below is an unselected part of those that have a named target and a result. 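Primary screen; positive scores mean lost reporter signal, so the sign may be inverted from the usual convention.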 Reagents against one gene are numbered here. A plus sign joins genes that one reagent is predicted to hit. No sequences are given here.

Assay: 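Positive regulators of HIF-driven reporter output in Drosophila cells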 (primary screen)
Cell system: Drosophila S2 cells with a stable HIF luciferase reporter
Reagent: long dsRNA against Drosophila genes, about 0.2 µg dsRNA per well of a 384-well plate
Time to read-out: three days of knock-down, then 20 h of DFO before reading
Challenge: desferrioxamine (DFO) at 100 µM, an iron chelator that mimics hypoxia, for 20 h
Measured: 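HIF reporter luminescence in cells given 100 µM DFO for 20 h, using the mouse ldh-a hypoxia-response element, scored as per-plate z-scores; higher means greater loss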
Reading the numbers: z-score: higher = stronger loss of HIF reporter signal

NC2alpha scored z-score, replicate 1 = -0.4; z-score, replicate 2 = -0.5.
After knock-down of CR11700 (retired record) the results were z-score, replicate 1 = 3.7; z-score, replicate 2 = 3.9.
Depletion of Act88F resulted in: z-score, replicate 1 = 0.7; z-score, replicate 2 = 1.6.
CG34244 gave z-score, replicate 1 = 0.3; z-score, replicate 2 = -0.1.
Against mtTFB1 + Ccdc56, the values are z-score, replicate 1 = -0.3; z-score, replicate 2 = -0.4.
CG15480 scored z-score, replicate 1 = -0.4; z-score, replicate 2 = -0.6.
Against Adgf-A, the entry reads z-score, replicate 1 = -0.3; z-score, replicate 2 = -0.7.
Depletion of AnxB10 resulted in: z-score, replicate 1 = -0.3; z-score, replicate 2 = -0.3.
For ssp5 the deposit lists z-score, replicate 1 = -0.3; z-score, replicate 2 = -0.8.
With knock-down of CG8141, the record shows z-score, replicate 1 = 0; z-score, replicate 2 = -0.3.
CG4004 #1 showed z-score, replicate 1 = -0.3; z-score, replicate 2 = -0.8.
Depletion of CG4004 #2 resulted in: z-score, replicate 1 = -0.3; z-score, replicate 2 = -0.6.
CG11342 showed z-score, replicate 1 = -0.2; z-score, replicate 2 = -0.6.

Individual results from the entries so far.
ssp5, z-score, replicate 2 = -0.8
Entry for CR11700 (retired record) in “z-score, replicate 1”: 3.7
For “z-score, replicate 1”, NC2alpha has -0.4

The results go on:
Against CG34276, the entry reads z-score, replicate 1 = -0.4; z-score, replicate 2 = 1.4.
With knock-down of Ras85D, the record shows z-score, replicate 1 = 2.1; z-score, replicate 2 = 1.9.
For CG8042, the entry reads z-score, replicate 1 = -0.4; z-score, replicate 2 = -0.5.
Against Obp44a the deposit lists z-score, replicate 1 = -0.3; z-score, replicate 2 = -0.4.
With knock-down of lola #1 the results were z-score, replicate 1 = -0.3; z-score, replicate 2 = 0.
lola #2 gave z-score, replicate 1 = 1.4; z-score, replicate 2 = 0.
Depletion of lola #3 resulted in: z-score, replicate 1 = -0.1; z-score, replicate 2 = 0.4.
Silencing of lola #4 gave: z-score, replicate 1 = 0.1; z-score, replicate 2 = 0.
Knock-down of lola #5 gave: z-score, replicate 1 = -0.2; z-score, replicate 2 = -0.3.
Knock-down of lola #6 resulted in: z-score, replicate 1 = 0.2; z-score, replicate 2 = 0.2.
Depletion of lola #7 gave: z-score, replicate 1 = 0.1; z-score, replicate 2 = 0.5.
Against lola #8 the deposit lists z-score, replicate 1 = -0.6; z-score, replicate 2 = -1.3.
Silencing of lola #9 came out at: z-score, replicate 1 = -0.1; z-score, replicate 2 = -0.1.
Silencing of lola #10 resulted in: z-score, replicate 1 = 1.5; z-score, replicate 2 = 1.9.
With knock-down of lola #11, the record shows z-score, replicate 1 = -0.4; z-score, replicate 2 = -0.6.
After knock-down of lola #12, the record shows z-score, replicate 1 = -0.5; z-score, replicate 2 = -1.
Depletion of CG15233 resulted in: z-score, replicate 1 = -0.2; z-score, replicate 2 = 0.1.
CG8249 scored z-score, replicate 1 = -0.2; z-score, replicate 2 = 0.2.
Knock-down of GluRIID gave: z-score, replicate 1 = -0.3; z-score, replicate 2 = -0.3.
With knock-down of CG42724 the results were z-score, replicate 1 = 0; z-score, replicate 2 = -0.1.
Against Pdf the deposit lists z-score, replicate 1 = -0.1; z-score, replicate 2 = -0.2.
Knock-down of CG7714 gave: z-score, replicate 1 = -1.1; z-score, replicate 2 = -0.9.
CG32106 scored z-score, replicate 1 = 0.1; z-score, replicate 2 = -0.1.
With knock-down of PH4alphaNE3 the results were z-score, replicate 1 = -0.3; z-score, replicate 2 = -0.1.
mRpL33 showed z-score, replicate 1 = 0.8; z-score, replicate 2 = 0.1.
Silencing of CR11023 resulted in: z-score, replicate 1 = -0.3; z-score, replicate 2 = -0.2.
For sac, the entry reads z-score, replicate 1 = -0.2; z-score, replicate 2 = -0.1.
